± gives the standard deviation. The list shows a part of the results. The uncertainty is large for many entries.
Each sequence was assayed on EfPiwi piRISC loaded with L1MC piRNA (26 nt) (assay: pre-steady-state target cleavage rate (min^-1); guide: L1MC piRNA 5'p-UAACUAAAUACUAUGCAAGCUGUAGG; MIWI and MILI are mouse PIWI proteins and EfPiwi is from a freshwater sponge; tags in brackets are library labels; higher = faster piRNA-guided slicing of the target). Conditions: auxiliary factor: 500 nM Ephydatia muelleri Gtsf1.
How it was run: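 For Cleave-'n-Seq, a transcribed, DNA-blocked target RNA library […] met 1 nM active affinity-purified piRISC with one synthetic guide at 33 °C for 0–8 or 0–960 min in HEPES–potassium acetate buffer, with or without 500 nM GTSF1 partner protein. Uncleaved targets were sequenced and normalised to depth and weakly complementary targets, with three trials pooled and k3 capped at 0.0001 min^-1. A burst-and-steady-state fit supplied the pre-steady-state cleavage rate.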

Sequence	pre-steady-state target cleavage rate
UCCUCCUACACGUUGCAUAGUAUUUUCAAA	0.00147 ± 0.0053
UCCUCCUACAGCUUGCUAAGUAUUUAGAAA	0.002 ± 0.0042
UCCUGGAACAGCUUGCAUACAUUUUAGUUA	0.00022 ± 0.021
UCCUGGAUGUCGAACCUUUGUAUUUAGUUA	0.000338 ± 0.013
UCCUGCUACAGCUUCCAUAGUAUUUUGUUA	0.0012 ± 0.0038
UCCUGCUACAGCUUGCAUAGUUAAUAGAAA	0.00122 ± 0.0042
UCCUGGAACAGCUUCCAUAGAAUUUAGUUA	0.00172 ± 0.0029
UCCUGGAUGUCGAAGCAUAGUUUUUACUUA	0.000137 ± 0.018
UCCUGGAUGAGCUUGCAUGUAUUUAGUUA	0.00153 ± 0.0046
UCCUCCUACAGCUUGCAUAGUAAAAAGAAA	0.00287 ± 0.0026
UCCUGGAUGACCUUGCAUAGUAUUUAGAAA	0.00114 ± 0.0042
UCCUCCUACAGCUAGCAUAGUAUUUAGAAA	0.00378 ± 0.0016
UCCUCCUACAGCUUGGUAAGUAUUUUCAAA	0.000344 ± 0.0077
UCCUGGAACAGCUUGCAUUCUAUUUAGAAA	0.000646 ± 0.0064
UCCUCCUACAGCUUGCAUACAUUUUUCAAA	0.00112 ± 0.0067

Same assay, conditions: auxiliary factor: none (no Gtsf1)

Sequence	pre-steady-state target cleavage rate
UCCUGGAUCAGCUUGCAUACAAUUUAGUUA	0.000439 ± 0.014
UCCUGGAACAGCUUGCAUACAUUUUAGUAA	0.000443 ± 0.014
UCCUGGAUGAGCUUGCCAUAGUAUUUAGUUA	0.000737 ± 0.0095
UCCUCCUACAGGAAGCAUAGUAUUUAGAAA	0.000378 ± 0.018
UCCUGGAUGAGCUUGCAUAGAUUUUAGAAA	0.000563 ± 0.011
UCCUGCUACAGCUUGCAUAGUUAAUACAAA	0.000207 ± 0.026
UCCUGCUACAGCUUGCAUAGUAUUAAGAUA	0.000638 ± 0.0098
UCCUCCUACAGCUUGCAUAGUAAAAUCAAA	0.000478 ± 0.015
UCCUGGAACAGCUUGCAAUGUAUUUACAAA	0.000239 ± 0.027
UCCUCCUACAGCUACGAUAGUAUUUUCAAA	0.000209 ± 0.024
UCCUGCUACAGGAAGCAUAGUAUUUACAAA	< 0.0001
UCCUGCUACAGCUUGCAUACAUAAAUCAAA [g12:g25:cont:t1A]	< 0.0001
UCCUGGUACAGCUUGCAUACAAUUUAGAAA	0.000361 ± 0.018
UCCUGGAUGUCGAAGCAUAGUAUUUAGCUUA	0.00018 ± 0.036
UCCUGGUACAGCUUGCAUAGUAAAUAGAAA	0.000257 ± 0.028
UCCUGGAUGUGCUUGCAUAGUAUUUUCAAA	0.000322 ± 0.023
UCCUGGUACAGCUUGCAUACAAUUUAGUUA	0.000306 ± 0.024
UCCUGGAUGAGCUUGCAUAGUAAUUAGAAA	< 0.0001
UCCUGGUACAGCUUCCAUAGUAAUUAGUUA	0.00053 ± 0.011
UCCUGGUACAGCUUGCAUAGUAUAAAGAAA	0.000616 ± 0.012

Sequence	pre-steady-state target cleavage rate
UCCUGGAUCACGAUGCAUAGUAUUUUCAAA	0.000122 ± 0.057
UCCUGGAUGUCGAAGCACAGUAUUUAGUUA	0.000302 ± 0.026
UCCUGGAUGUCGAUGCAUAGCUAUUUAGUUA	0.000228 ± 0.026
UCCUGGAUGUGCUUGCAUAGUAAAAAGUAA	0.00041 ± 0.019
UCCUCCUACACGUUGCAUAGUAUUUUCAAA	0.000174 ± 0.026
UCCUCCUACAGCUUGCUAAGUAUUUAGAAA	0.000415 ± 0.01
UCCUGGAACAGCUUGCAUACAUUUUAGUUA	0.000158 ± 0.038
UCCUGGAUGUCGAACCUUUGUAUUUAGUUA	0.000184 ± 0.031
UCCUGCUACAGCUUCCAUAGUAUUUUGUUA	0.000359 ± 0.015
UCCUGCUACAGCUUGCAUAGUUAAUAGAAA	0.000284 ± 0.015
UCCUGGAACAGCUUCCAUAGAAUUUAGUUA	0.000481 ± 0.012
UCCUGGAUGUCGAAGCAUAGUUUUUACUUA	< 0.0001
UCCUGGAUGAGCUUGCAUGUAUUUAGUUA	0.000989 ± 0.0098
UCCUCCUACAGCUUGCAUAGUAAAAAGAAA	0.000261 ± 0.017
UCCUGGAUGACCUUGCAUAGUAUUUAGAAA	0.000475 ± 0.015
UCCUCCUACAGCUAGCAUAGUAUUUAGAAA	0.000508 ± 0.012
UCCUCCUACAGCUUGGUAAGUAUUUUCAAA	0.000336 ± 0.013
UCCUGGAACAGCUUGCAUUCUAUUUAGAAA	0.000376 ± 0.02
UCCUCCUACAGCUUGCAUACAUUUUUCAAA	0.000196 ± 0.024

Reference: the supplement of paper PMC10338343
